# Measured values from PubChem BioAssay AID1508600 (Functional Genomics Laboratory (NCATS/FGL), 2020).
# The campaign covered roughly 53,000 sequences. About 3,700 (7%) were called active.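 Rule for the calls: active = gene knockdowns whose robust z-score for IL-1 alpha signal is at least 2 or at most -2, so actives lie on both sides; inactive = the rest.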 The list shows a part of the results.
# Assay: Components of the Cytosolic LPS Sensing Pathway: Gene Identification via Genome-wide siRNA Screen;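 note: robust z of the log signal after scaling to non-targeting control siRNA wells of the plate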
# Details: RAW264.7 macrophages, IL-1a HTRF, actives lie on both sides, screened at 100 nM (by protocol), cells primed 5 h with Pam3CSK4 first
# How it was run: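 Three distinct siRNAs per gene were tested singly at 100 nM in RAW264.7 macrophages. Following Pam3CSK4 priming and 24 hour LipidA transfection, IL-1a secretion was read by HTRF.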
row,Sequence,z-score
1,GGGAUUAUCUGAGAUGGAUTT against Btbd1,inactive: -1
2,GGCCUGGAAGAUGAAGAUGTT against Arid3b,inactive: -0.591
3,UUUAAGGACCUUGUAAGAATT against Olfr813,inactive: 1.01
4,GGAAUUGUACAAAUGACCUTT against Adam29,inactive: -0.429
5,GGAAGAGAAAAGGAAGAAATT against Ankrd23,inactive: 1.54
6,GGACUUGAUCAAUGGCUAUTT against Wscd1,inactive: -0.043
7,GCCUUCAGUACUGAUACCCTT against E2f2,inactive: 0.739
8,GCUCAGCAGGAAAUAACAGTT against Ccdc90b,active: -2.06
9,GGACCUUCUUCAAGAAAGUTT against Olfr430,inactive: 0.0987
10,GUCCUCAUCGGUCUGUUUATT against Mb,inactive: 0.551
11,GCAGCAGACACUCUGUACATT against Pcbp4,inactive: -0.0747
12,GCAGUUCGAAUGGAGUGGUTT against Ube2v1,inactive: -1.07
13,GGAAUAUCAGAAUACCAUCTT against Cnpy4,inactive: 0.89
14,GCGCGGCUUCAGAAUUAUCTT against Aasdh,inactive: 1.59
15,GCCGGAUACCAACAUUCAATT against Parp11,inactive: 1.86
16,GGAAGACCUGAACAAACUGTT against Cep19,inactive: -0.425
17,GCUGUUCUCGCCUAUGCAATT against Dll4,inactive: 0.0803
18,GGAAUUUUCUAUAGUCCGGTT against Flrt2,inactive: 0.155
19,GGGAGGAGAGUGAUUGAGATT against A730013G03Rik,inactive: 0.682
20,GCUCAUAAAUAAAAAGACGTT against Mcm6,inactive: 1.19
21,GGACUUCUUGUUUCUUACATT against Olfr1140,inactive: 0.226
22,GGAAAGAAGGACAAAUAAUTT against Spg20,inactive: -0.407
23,GGUCAUGACUGGUGUGUCATT against Allc,inactive: -1.27
24,GGCCAACUUCGAAGAAAAGTT against Mrpl52,inactive: 0.192
25,GCACACCCAAUGCUCUAAGTT against Nprl3,inactive: 1.25
26,GGGUAUCGUAUCAGAUCCCTT against Mdp1,inactive: 0.996
27,CCAAAACCUAACUUGAAGATT against Rad51ap1,inactive: 0.0668
28,GCUACGCUAUCCAAAUUCUTT against Minar1,inactive: 0.0603
29,GCCAGUCAUGUCCAAAGUATT against Hdac1,inactive: -0.282
30,GGGACUGUUUCAGCUAUACTT against H6pd,inactive: -1.59

# Quoted at random: 2 entries already listed
row,Sequence,z-score
1,GGGAUUAUCUGAGAUGGAUTT against Btbd1,inactive: -1
17,GCUGUUCUCGCCUAUGCAATT against Dll4,inactive: 0.0803
